ε and Therapeutic index data for nine compounds are collected here from article PMC8560896 (Frontiers in Chemistry, 2021).

A short description of data set [1]: Cupric ion reducing antioxidant capacity (CUPRAC). The following applies: Supplementary Table 1; molar absorptivity in CUPRAC test. Here is the method:
The CUPRAC test was performed as reported by [Ozyürek et al. (2008)] on the new compounds in the unacetylated form.
CuCl2 solution 10 mM, was prepared by dissolving […] CuCl2 in water, and diluting to 250 ml. Neocuproine (Nc) solution 7.5 mM, was prepared by dissolving 15 mg of neocuproine in 10 ml of absolute EtOH. Ammonium acetate 1.0 M was prepared by dissolving 19.27 g of NH4Ac in 250 ml of water. The cyclodextrin (2% M-β-CD) stock solution was prepared in water-acetone (9:1 v/v). The standard solution of Trolox 1 mM was prepared in 2% M-β-CD. All working solutions of antioxidant 1 mM were freshly prepared in 2% M-β-CD.
1 ml of Cu(II) + 1 ml of Nc + 1 ml of NH4Ac buffer + x mL of antioxidant solution + (1.1 − x) 2% M-β-CD in 1:9 water–acetone mixture (v/v); total volume = 4.1 ml, measure A 450 against a reagent blank after 40 min of reagent addition at room temperature.
The Trolox equivalent antioxidant capacity (TEAC) is defined as the millimolar concentration of a Trolox solution having the antioxidant capacity equivalent to a 1.0 mM solution of the substance under investigation. The […] values were simply calculated by dividing the molar absorptivity ε of the species under investigation by that of Trolox under corresponding conditions. The concentration linearity ranges for all the antioxidants tested are reported in the Supplementary Material (See Supplementary Table S1).

Another data set has as its system SH-SY5Y cells. Briefly: MTT cell viability assay. The following applies: ratio between the IC50 value and the concentration with more antioxidant activity. It counts as cell-based, human. An excerpt: The MTT test is based on the observation that live cells can reduce the water-soluble yellow tetrazolium salt [3-(4,5-dimethylthiazol-2-yl)-2,5-diphenyltetrazolium bromide] into water-insoluble blue/magenta formazan crystals, by dehydrogenase of the active mitochondria. Dissolved formazan crystals can be quantified using a spectrophotometer and the values obtained are in direct correlation to the number of metabolically active cells. For this reason, this colorimetric assay is used to evaluate cell viability.
The MTT assay was performed as reported in literature ([Corasaniti et al., 2007]). […].
The optical density was measured at wavelengths of 540 and 690 nm using a spectrophotometer (X MARK Spectrophotometer Microplate Bio-Rad).
In general terms: Tetrazolium assays rely on reduction of a dye to a coloured formazan, in cell work by metabolically active cells.

With `O=C(OCCc1ccc(O)c(O)c1)C1CCN(Cc2ccccc2)CC1` [HT1], the ε in data set [1] is recorded as 0,0447 L mol−1 cm−1.

As to `CC(=O)Oc1ccc(CCOC(=O)C2CCN(Cc3ccccc3)CC2)cc1OC(C)=O` [HT1a], the Therapeutic index in the data set on SH-SY5Y cells is reported as 50.

`O=C(OCCc1cc(O)c(O)cc1[N+](=O)[O-])C1CCN(Cc2ccccc2)CC1` [HT2]: the ε in data set [1] was 0,0369 L mol−1 cm−1. In addition, the Therapeutic index in the data set with SH-SY5Y cells is listed as 50.

In the case of `COc1cc(CCOC(=O)C2CCN(Cc3ccccc3)CC2)ccc1O` [HT3], the ε in data set [1] was 0,0239 L mol−1 cm−1. Also, the Therapeutic index in the data set with SH-SY5Y cells is given as 25.

Take `COc1cc(CCOC(=O)C2CCN(Cc3ccccc3)CC2)ccc1OC(C)=O` [HT3a]: the Therapeutic index in the data set on SH-SY5Y cells is listed as 10.

As for `O=C(OCCc1ccc(O)cc1)C1CCN(Cc2ccccc2)CC1` [HT4], the ε in data set [1] is reported as 0,0132 L mol−1 cm−1. Further, the Therapeutic index in the data set with SH-SY5Y cells is on record as 50.

As to `CC(=O)Oc1ccc(CCOC(=O)C2CCN(Cc3ccccc3)CC2)cc1` [HT4a], in the data set on SH-SY5Y cells, the Therapeutic index was determined as 40.

`OCCc1ccc(O)c(O)c1` [HT, hydroxytyrosol, reference compound]: the ε in data set [1] was 0,0375 L mol−1 cm−1.

In the case of `Cc1c(C)c2c(c(C)c1O)CCC(C)(C(=O)O)O2` (stereo not drawn) [Trolox, reference compound], the ε in data set [1] is on record as 0,0133 L mol−1 cm−1.
